Test results from the supplement of paper PMC10849652.
The list shows a part of the results.

Chains of the proteins cited; added tags and fusions are not shown. Lines headed by an entry give the natural chain unless they say otherwise; changes in a name come on top.
UniProt Q96AB3: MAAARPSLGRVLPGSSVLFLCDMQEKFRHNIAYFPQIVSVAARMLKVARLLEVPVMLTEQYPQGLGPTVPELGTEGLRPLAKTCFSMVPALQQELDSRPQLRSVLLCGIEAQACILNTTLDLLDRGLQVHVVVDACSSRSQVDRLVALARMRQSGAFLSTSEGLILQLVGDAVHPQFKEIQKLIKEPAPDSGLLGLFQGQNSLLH
UniProt Q8N5M9: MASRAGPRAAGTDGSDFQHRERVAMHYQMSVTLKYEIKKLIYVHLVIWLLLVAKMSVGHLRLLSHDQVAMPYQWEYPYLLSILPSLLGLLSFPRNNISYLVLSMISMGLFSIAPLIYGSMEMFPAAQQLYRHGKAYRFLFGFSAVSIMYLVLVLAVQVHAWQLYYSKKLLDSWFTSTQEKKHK
UniProt Q9NV88, whole entry, looked up: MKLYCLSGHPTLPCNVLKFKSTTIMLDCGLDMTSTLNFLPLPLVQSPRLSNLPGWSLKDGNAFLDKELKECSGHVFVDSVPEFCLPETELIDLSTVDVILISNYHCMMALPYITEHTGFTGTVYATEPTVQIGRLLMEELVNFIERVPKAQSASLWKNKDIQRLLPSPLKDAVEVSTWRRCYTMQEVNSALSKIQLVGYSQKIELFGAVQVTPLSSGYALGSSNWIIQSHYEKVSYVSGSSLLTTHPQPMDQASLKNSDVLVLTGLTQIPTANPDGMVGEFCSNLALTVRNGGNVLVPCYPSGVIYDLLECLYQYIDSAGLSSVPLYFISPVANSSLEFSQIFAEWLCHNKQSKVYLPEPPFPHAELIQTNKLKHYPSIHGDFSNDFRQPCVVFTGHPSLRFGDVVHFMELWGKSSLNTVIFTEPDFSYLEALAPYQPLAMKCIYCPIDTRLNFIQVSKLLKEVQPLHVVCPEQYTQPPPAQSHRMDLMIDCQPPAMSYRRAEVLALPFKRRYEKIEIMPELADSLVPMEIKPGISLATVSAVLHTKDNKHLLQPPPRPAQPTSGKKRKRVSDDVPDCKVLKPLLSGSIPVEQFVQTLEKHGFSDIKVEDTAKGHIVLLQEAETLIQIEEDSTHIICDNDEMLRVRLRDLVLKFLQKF
UniProt Q9H3F6: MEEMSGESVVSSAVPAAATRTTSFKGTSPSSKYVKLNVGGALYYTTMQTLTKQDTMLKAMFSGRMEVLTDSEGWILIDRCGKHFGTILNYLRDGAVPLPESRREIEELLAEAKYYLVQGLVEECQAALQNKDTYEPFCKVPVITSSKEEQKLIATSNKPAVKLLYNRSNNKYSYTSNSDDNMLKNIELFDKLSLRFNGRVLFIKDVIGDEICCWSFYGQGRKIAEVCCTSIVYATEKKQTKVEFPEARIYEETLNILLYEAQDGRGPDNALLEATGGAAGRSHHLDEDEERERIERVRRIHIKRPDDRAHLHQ
UniProt Q6DN90: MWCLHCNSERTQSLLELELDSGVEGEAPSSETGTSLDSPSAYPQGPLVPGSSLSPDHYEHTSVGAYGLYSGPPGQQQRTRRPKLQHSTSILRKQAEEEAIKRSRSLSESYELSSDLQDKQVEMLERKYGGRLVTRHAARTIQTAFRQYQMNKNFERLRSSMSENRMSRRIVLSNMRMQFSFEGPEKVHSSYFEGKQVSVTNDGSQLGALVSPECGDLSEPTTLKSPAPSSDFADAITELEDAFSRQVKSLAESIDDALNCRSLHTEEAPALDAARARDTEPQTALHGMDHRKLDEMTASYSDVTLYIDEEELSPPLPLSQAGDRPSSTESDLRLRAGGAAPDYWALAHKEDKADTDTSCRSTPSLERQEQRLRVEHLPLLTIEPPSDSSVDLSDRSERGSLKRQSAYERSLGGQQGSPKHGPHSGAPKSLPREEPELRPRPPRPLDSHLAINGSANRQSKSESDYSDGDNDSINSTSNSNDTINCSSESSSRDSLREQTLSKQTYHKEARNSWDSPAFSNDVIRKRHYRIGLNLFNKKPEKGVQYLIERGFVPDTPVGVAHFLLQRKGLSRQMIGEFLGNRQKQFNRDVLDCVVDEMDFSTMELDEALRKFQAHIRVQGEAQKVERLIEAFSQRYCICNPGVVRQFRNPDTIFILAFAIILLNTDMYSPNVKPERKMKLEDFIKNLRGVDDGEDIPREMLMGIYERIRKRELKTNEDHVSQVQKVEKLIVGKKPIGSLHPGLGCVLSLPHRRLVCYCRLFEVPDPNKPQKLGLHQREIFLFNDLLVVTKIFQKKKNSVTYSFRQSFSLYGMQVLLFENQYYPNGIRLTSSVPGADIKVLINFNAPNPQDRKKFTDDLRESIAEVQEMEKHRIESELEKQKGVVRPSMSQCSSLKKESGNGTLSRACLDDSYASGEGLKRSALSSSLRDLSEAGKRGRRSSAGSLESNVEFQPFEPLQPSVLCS
UniProt Q96CN7: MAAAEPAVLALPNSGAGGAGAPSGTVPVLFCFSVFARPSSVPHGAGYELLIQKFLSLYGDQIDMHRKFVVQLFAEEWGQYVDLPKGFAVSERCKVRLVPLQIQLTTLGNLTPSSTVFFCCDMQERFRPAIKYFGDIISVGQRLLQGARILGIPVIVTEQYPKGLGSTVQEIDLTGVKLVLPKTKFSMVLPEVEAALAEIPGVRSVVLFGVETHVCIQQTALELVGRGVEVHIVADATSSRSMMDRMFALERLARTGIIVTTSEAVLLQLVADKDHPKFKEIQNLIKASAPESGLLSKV
UniProt Q9UK76: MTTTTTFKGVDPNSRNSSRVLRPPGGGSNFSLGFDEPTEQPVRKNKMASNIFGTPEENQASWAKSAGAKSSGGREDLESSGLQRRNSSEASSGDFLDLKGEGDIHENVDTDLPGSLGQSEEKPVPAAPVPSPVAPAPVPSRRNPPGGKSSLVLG
UniProt Q14653: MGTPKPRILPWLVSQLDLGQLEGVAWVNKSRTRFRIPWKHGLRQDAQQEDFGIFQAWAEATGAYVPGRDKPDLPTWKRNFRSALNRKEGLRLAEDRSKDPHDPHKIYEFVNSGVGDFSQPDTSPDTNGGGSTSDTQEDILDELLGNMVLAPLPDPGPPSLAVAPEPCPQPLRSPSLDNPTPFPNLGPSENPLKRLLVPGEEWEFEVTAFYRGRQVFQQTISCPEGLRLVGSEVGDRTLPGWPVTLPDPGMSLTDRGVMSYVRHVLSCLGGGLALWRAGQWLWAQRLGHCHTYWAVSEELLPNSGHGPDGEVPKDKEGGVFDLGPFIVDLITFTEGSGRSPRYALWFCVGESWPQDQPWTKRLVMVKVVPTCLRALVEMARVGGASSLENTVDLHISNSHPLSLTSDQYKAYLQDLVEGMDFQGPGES
UniProt Q13572: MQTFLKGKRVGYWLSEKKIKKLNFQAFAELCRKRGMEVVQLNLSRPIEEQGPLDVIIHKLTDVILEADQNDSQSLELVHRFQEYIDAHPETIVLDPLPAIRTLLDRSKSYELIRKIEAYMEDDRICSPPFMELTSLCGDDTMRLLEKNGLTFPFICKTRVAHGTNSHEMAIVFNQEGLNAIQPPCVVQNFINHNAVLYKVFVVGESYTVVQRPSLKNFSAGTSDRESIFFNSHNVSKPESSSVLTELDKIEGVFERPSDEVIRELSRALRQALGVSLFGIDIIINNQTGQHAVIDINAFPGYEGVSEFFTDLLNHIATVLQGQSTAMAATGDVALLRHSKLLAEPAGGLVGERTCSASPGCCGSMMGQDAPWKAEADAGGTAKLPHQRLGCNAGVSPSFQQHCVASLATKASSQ
UniProt Q9BUE6: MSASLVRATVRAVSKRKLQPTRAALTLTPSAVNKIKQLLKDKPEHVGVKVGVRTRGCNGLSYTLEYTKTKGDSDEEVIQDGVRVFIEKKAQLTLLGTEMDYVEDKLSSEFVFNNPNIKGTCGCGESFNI
UniProt Q7Z5Y7: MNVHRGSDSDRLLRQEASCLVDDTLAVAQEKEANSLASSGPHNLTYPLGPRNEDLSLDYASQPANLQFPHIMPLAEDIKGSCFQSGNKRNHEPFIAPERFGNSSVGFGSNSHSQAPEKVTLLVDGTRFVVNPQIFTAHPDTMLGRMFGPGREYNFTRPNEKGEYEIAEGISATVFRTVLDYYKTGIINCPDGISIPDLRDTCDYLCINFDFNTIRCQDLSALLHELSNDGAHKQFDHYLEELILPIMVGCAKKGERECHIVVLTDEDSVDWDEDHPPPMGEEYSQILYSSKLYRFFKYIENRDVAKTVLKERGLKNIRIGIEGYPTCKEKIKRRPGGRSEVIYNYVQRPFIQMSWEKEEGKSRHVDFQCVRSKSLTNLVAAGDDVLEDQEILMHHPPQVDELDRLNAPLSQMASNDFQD
UniProt Q8TB96: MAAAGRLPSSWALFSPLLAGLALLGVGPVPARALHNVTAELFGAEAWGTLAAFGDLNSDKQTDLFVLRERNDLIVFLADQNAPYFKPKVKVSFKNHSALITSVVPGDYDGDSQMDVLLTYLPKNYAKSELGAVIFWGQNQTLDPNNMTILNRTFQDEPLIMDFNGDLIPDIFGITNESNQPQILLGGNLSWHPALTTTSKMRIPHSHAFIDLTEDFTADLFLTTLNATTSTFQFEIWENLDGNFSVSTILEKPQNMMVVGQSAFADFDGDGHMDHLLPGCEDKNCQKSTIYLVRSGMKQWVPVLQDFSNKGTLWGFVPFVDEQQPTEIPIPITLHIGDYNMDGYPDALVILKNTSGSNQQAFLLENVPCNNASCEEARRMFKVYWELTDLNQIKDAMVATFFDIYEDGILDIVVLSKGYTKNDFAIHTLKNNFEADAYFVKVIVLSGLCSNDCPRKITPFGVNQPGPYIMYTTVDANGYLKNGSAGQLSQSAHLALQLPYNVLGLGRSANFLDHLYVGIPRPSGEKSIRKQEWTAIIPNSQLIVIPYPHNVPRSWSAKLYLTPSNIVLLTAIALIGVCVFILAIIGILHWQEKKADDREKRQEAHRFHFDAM
UniProt Q9P2N6: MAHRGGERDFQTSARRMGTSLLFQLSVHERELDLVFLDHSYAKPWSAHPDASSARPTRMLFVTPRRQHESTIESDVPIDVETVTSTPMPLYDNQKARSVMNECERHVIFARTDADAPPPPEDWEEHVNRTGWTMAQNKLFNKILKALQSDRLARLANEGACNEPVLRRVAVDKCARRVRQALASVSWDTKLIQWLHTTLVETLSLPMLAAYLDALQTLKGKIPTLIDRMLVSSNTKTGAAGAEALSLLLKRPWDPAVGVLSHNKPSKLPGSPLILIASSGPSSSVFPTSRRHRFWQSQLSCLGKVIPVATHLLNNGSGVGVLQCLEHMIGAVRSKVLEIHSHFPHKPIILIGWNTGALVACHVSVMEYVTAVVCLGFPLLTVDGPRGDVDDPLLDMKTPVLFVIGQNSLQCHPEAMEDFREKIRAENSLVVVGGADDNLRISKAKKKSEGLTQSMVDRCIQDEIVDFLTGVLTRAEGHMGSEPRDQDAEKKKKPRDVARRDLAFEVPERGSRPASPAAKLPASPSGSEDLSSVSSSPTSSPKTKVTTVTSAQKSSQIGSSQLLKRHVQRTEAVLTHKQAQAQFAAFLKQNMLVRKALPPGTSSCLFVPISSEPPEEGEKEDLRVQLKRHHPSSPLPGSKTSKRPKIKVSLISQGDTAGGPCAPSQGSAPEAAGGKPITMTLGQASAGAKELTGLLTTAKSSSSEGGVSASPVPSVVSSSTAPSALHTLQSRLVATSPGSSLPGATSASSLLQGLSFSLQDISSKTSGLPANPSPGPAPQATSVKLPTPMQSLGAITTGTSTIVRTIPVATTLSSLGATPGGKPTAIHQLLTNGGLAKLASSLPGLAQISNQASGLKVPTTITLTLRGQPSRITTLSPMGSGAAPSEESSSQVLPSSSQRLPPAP
UniProt P05556, whole entry, looked up: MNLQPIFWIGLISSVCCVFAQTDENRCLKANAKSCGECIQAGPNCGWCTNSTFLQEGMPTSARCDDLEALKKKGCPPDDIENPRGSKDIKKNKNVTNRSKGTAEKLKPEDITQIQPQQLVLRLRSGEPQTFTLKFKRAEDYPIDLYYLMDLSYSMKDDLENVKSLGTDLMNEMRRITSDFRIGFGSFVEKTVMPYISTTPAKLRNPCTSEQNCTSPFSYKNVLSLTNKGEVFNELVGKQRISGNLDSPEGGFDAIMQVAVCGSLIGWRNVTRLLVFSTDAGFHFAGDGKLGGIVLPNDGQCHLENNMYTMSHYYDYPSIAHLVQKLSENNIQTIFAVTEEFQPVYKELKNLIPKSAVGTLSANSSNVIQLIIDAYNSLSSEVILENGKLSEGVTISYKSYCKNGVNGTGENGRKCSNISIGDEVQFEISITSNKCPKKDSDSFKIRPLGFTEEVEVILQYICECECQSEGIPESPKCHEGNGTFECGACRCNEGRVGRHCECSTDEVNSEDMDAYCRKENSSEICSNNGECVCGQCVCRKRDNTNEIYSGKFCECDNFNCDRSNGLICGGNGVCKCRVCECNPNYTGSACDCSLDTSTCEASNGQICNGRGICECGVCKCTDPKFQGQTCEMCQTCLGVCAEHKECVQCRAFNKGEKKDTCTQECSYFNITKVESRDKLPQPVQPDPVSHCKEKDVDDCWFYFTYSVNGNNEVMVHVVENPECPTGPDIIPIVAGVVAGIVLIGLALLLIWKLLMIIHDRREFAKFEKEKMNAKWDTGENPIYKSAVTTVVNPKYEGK

compound: CCN(CCCOc1ccc2c(Nc3cc(CC(=O)Nc4cccc(F)c4)[nH]n3)ncnc2c1)CCOP(=O)(O)O [barasertib]; assay: log2 fold change, soluble protein after heating vs DMSO (PISA); higher = thermal stabilisation; K562 lysate, 10 uM; active = over 0.2 and 3.5 SD of the protein, either way, in both replicates (recomputed)
Outline: (§1)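 To prepare the extract, K562 pellets were dounce-homogenised in PBS pH 7.4 with 1 mM MgCl2, giving crude material at 1 mg/mL protein. This was treated with 10 μM compound for 30 min, then heated in aliquots for 3 min over 48°C-58°C before pooling and addition of NP-40 to 0.5% at 4°C. Centrifugation at 21,000xg for 90 min left soluble protein in the supernatant, which TMTpro 16plex LC-MS/MS quantified with equalised channel sums. Results are log-two fold changes in thermal stability compared with solvent controls, from duplicates.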

log2 fold change, inactive:
ISOC2 (UniProt Q96AB3) -0.12
INTS5 (UniProt Q6P9B9) 0.044
ITPKA (UniProt P23677) 0.041
IPO11 isoform 2 (UniProt Q9UI26) -0.001
JAGN1 (UniProt Q8N5M9) 0
KDM1B (UniProt Q8NB78) 0.014
KDELR2 (UniProt P33947) 0.036
INTS9 (UniProt Q9NV88) -0.033
KCTD10 (UniProt Q9H3F6) 0.082
ISYNA1 (UniProt Q9NPH2) 0.002
ISCU (UniProt Q9H1K1) 0.127
IQGAP1 (UniProt P46940) 0.002
INTS14 (UniProt Q96SY0) -0.021
KDM1A (UniProt O60341) 0.014
KBTBD2 (UniProt Q8IY47) 0.022
IQSEC1 (UniProt Q6DN90) 0.005
IRAK1 (UniProt P51617) -0.01
ITGAV (UniProt P06756) -0.038
KCTD9 (UniProt Q7L273) 0.014
IRF2BPL (UniProt Q9H1B7) 0.024
IRF2BP1 (UniProt Q8IU81) -0.003
ISOC1 (UniProt Q96CN7) -0.007
KAT7 (UniProt O95251) 0.084
JPT1 (UniProt Q9UK76) 0.105
KCTD5 (UniProt Q9NXV2) 0.005
INTS7 (UniProt Q9NVH2) 0.335
IRF3 (UniProt Q14653) 0.02
ITPK1 (UniProt Q13572) -0.048
KAT8 (UniProt Q9H7Z6) 0.063
IPO5 isoform 3 (UniProt O00410) -0.036
ISCA1 isoform 2 (UniProt Q9BUE6) 0.028
JPT2 isoform 3 (UniProt Q9H910) 0.002
KCTD20 (UniProt Q7Z5Y7) 0.052
ITFG1 (UniProt Q8TB96) 0.06
KANSL3 (UniProt Q9P2N6) -0.098
KCT2 (UniProt Q8NC54) 0.127
JUND (UniProt P17535) 0.016
ISY1 isoform 1 (UniProt Q9ULR0) 0.018
ITGB1 (UniProt P05556) -0.005

compound: CC[C@@H]1C(=O)N(C)c2cnc(Nc3ccc(C(=O)NC4CCN(C)CC4)cc3OC)nc2N1C1CCCC1; assay: as above
Outline: as §1

log2 fold change, inactive:
ISOC2 (UniProt Q96AB3) 0.096
INTS5 (UniProt Q6P9B9) 0.042
ITPKA (UniProt P23677) -0.105
IPO11 isoform 2 (UniProt Q9UI26) -0.031
JAGN1 (UniProt Q8N5M9) -0.031
KDM1B (UniProt Q8NB78) -0.091
KDELR2 (UniProt P33947) 0.054
INTS9 (UniProt Q9NV88) -0.001
KCTD10 (UniProt Q9H3F6) -0.007
ISYNA1 (UniProt Q9NPH2) -0.013
ISCU (UniProt Q9H1K1) -0.002
IQGAP1 (UniProt P46940) 0.002
INTS14 (UniProt Q96SY0) 0.019
KDM1A (UniProt O60341) -0.011
KBTBD2 (UniProt Q8IY47) -0.018
IQSEC1 (UniProt Q6DN90) -0.035
IRAK1 (UniProt P51617) -0.089
ITGAV (UniProt P06756) 0.055
KCTD9 (UniProt Q7L273) -0.006
IRF2BPL (UniProt Q9H1B7) 0.04
IRF2BP1 (UniProt Q8IU81) 0.026
ISOC1 (UniProt Q96CN7) -0.045
KAT7 (UniProt O95251) 0.022
JPT1 (UniProt Q9UK76) 0.061
KCTD5 (UniProt Q9NXV2) 0.08
INTS7 (UniProt Q9NVH2) -0.073
IRF3 (UniProt Q14653) -0.051
ITPK1 (UniProt Q13572) 0.038
KAT8 (UniProt Q9H7Z6) 0.043
IPO5 isoform 3 (UniProt O00410) -0.006
ISCA1 isoform 2 (UniProt Q9BUE6) 0.042
JPT2 isoform 3 (UniProt Q9H910) 0.031
KCTD20 (UniProt Q7Z5Y7) 0.046
ITFG1 (UniProt Q8TB96) 0.103
KANSL3 (UniProt Q9P2N6) 0.022
KCT2 (UniProt Q8NC54) 0.054
JUND (UniProt P17535) 0.131
ISY1 isoform 1 (UniProt Q9ULR0) 0.066
ITGB1 (UniProt P05556) 0.032
